Test [1] has as its target T1, GST-Tom9.2 (cytosolic domain, aa 1-53) (Arabidopsis thaliana) (UniProt Q9FNC9).
T1 sequence: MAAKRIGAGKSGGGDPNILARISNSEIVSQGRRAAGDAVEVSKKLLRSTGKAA
Nature of the test: pull-down.

The target in test [2] is T2, GST-OM64 (cytosolic domain, aa 488-586) (Arabidopsis thaliana) (UniProt F4KCL7).
T2 sequence: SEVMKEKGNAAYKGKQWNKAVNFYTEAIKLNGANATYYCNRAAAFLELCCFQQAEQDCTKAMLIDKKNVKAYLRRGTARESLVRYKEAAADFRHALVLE
In words: pull-down.

No constants are given. Whether binding was seen depends on the method and setting. Where a sequence is shown, tags or fusion partners need not be part of it.

B1: His+SUMO-atDjA2 (protein, UniProt P42825 1-419)
chain: MFGRGPSRKSDNTKFYEILGVPKTAAPEDLKKAYKKAAIKNHPDKGGDPEKFKELAQAYEVLSDPEKREIYDQYGEDALKEGMGGGGGGHDPFDIFSSFFGSGGHPFGSHSRGRRQRRGEDVVHPLKVSLEDVYLGTTKKLSLSRKALCSKCNGKGSKSGASMKCGGCQGSGMKISIRQFGPGMMQQVQHACNDCKGTGETINDRDRCPQCKGEKVVSEKKVLEVNVEKGMQHNQKITFSGQADEAPDTVTGDIVFVIQQKEHPKFKRKGEDLFVEHTISLTEALCGFQFVLTHLDKRQLLIKSKPGEVVKPDSYKAISDEGMPIYQRPFMKGKLYIHFTVEFPESLSPDQTKAIEAVLPKPTKAAISDMEIDDCEETTLHDVNIEDEMKRKAQAQREAYDDDEEDHPGGAQRVQCAQQ
For the molecule B1, the binding result in test [1] is given as “no binding”.

B2: His+SUMO-atDjA1 (protein, UniProt Q94AW8 1-420)
chain: MFGRGPSKKSDNTKFYEILGVPKSASPEDLKKAYKKAAIKNHPDKGGDPEKFKELAQAYEVLSDPEKREIYDQYGEDALKEGMGGGGGGHDPFDIFSSFFGGGPFGGNTSRQRRQRRGEDVVHPLKVSLEDVYLGTMKKLSLSRNALCSKCNGKGSKSGASLKCGGCQGSGMKVSIRQLGPGMIQQMQHACNECKGTGETINDRDRCPQCKGDKVIPEKKVLEVNVEKGMQHSQKITFEGQADEAPDTVTGDIVFVLQQKEHPKFKRKGEDLFVEHTLSLTEALCGFQFVLTHLDGRSLLIKSNPGEVVKPDSYKAISDEGMPIYQRPFMKGKLYIHFTVEFPDSLSPDQTKALEAVLPKPSTAQLSDMEIDECEETTLHDVNIEDEMRRKAQAQREAYDDDDEDDDHPGGAQRVQCAQQ
As to B2, in test [2], the binding result is on record as “no binding”.

For the origin of these results see doi:10.1101/2024.04.19.590371 (bioRxiv, 2024).
